In the supplement of paper PMC12067093, “Discovery and optimisation of a covalent ligand for TRIM25 and its application to targeted protein ubiquitination” (Chemical Science, 2025):
The other results are listed elsewhere or left out.

The chains behind the UniProt entries cited, without tags or fusion partners. Where a name states a change or a piece, a line headed by the entry shows the natural chain unless it says otherwise.
UniProt Q00796: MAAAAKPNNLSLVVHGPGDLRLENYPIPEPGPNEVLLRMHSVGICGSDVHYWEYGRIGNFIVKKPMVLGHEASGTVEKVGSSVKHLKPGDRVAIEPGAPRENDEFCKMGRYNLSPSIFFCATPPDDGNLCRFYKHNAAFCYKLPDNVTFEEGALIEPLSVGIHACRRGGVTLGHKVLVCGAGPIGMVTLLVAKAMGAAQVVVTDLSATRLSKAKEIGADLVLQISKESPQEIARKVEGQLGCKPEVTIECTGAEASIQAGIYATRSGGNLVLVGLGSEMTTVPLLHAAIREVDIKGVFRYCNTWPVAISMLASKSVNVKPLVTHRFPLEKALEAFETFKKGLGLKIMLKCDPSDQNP
UniProt Q9UMY4: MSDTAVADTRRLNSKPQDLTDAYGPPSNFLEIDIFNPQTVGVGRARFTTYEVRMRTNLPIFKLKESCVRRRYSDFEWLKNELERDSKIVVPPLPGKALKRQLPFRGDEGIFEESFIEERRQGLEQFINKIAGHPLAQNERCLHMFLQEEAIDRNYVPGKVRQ
UniProt Q5M775: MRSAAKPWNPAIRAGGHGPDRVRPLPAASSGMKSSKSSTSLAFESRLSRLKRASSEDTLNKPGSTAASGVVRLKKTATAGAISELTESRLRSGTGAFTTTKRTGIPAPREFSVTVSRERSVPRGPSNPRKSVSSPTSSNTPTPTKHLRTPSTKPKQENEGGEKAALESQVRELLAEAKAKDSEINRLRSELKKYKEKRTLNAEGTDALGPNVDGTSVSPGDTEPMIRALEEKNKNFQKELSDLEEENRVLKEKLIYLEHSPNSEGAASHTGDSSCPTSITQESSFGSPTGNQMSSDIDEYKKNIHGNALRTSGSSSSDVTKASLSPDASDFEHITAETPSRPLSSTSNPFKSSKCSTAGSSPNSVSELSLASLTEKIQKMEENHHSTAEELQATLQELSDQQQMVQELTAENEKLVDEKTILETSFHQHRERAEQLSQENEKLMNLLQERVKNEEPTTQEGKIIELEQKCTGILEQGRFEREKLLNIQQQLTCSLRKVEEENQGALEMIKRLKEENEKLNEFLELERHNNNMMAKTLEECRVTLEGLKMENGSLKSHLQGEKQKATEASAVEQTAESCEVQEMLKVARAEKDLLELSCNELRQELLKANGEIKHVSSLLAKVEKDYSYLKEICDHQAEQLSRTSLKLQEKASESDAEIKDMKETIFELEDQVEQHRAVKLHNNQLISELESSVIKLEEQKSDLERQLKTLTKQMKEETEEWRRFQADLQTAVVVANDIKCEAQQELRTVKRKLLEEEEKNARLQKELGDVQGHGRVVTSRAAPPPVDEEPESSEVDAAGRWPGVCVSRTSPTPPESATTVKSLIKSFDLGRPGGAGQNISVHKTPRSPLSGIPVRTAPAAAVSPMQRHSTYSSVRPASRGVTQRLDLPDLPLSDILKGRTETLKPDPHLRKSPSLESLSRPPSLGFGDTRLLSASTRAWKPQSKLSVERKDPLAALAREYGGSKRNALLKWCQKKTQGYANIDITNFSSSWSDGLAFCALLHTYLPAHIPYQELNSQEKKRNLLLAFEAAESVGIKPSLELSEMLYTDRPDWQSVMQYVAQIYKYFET
UniProt O15269: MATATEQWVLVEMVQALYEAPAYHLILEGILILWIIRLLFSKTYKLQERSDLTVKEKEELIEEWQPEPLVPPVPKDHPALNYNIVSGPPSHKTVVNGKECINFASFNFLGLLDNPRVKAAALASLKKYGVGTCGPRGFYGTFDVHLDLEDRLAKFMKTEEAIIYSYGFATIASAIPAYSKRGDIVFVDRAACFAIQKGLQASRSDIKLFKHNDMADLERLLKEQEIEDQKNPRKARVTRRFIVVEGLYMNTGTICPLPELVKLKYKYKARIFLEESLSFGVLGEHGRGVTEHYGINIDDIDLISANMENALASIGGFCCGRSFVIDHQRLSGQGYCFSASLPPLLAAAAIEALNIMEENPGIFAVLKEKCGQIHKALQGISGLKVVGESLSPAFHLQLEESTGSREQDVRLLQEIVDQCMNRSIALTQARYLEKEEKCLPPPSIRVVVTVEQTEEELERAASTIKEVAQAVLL
UniProt O15270: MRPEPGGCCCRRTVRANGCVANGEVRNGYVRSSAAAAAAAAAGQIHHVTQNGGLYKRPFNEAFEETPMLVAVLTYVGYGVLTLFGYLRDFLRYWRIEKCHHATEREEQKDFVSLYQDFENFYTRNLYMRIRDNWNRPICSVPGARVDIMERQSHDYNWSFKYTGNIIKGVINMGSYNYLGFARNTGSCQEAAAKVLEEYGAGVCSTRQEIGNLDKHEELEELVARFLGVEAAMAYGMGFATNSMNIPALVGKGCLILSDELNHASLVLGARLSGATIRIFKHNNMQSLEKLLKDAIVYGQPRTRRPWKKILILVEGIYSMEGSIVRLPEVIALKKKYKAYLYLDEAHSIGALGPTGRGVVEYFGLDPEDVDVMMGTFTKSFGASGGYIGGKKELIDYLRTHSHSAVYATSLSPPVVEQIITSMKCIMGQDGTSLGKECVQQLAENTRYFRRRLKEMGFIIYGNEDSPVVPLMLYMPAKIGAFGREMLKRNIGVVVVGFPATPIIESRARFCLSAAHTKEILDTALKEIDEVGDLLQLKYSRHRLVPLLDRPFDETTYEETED
UniProt O76094: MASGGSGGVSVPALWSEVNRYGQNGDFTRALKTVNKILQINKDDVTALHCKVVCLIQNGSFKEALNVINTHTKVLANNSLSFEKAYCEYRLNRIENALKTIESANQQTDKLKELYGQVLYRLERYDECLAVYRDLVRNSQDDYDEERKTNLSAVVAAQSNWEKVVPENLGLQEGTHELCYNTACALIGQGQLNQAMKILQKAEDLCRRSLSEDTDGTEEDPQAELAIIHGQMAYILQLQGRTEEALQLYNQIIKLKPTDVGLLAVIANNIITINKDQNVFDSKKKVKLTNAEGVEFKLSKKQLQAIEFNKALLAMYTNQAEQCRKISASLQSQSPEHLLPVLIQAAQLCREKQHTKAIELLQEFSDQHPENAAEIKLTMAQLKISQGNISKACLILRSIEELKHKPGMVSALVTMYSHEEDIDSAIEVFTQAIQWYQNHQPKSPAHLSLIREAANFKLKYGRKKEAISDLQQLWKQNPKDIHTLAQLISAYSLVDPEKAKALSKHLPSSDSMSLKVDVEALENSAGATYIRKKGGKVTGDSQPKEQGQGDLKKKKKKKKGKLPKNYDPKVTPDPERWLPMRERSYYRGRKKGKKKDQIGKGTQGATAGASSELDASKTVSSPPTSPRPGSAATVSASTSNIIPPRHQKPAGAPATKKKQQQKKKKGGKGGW
UniProt Q9H8P0: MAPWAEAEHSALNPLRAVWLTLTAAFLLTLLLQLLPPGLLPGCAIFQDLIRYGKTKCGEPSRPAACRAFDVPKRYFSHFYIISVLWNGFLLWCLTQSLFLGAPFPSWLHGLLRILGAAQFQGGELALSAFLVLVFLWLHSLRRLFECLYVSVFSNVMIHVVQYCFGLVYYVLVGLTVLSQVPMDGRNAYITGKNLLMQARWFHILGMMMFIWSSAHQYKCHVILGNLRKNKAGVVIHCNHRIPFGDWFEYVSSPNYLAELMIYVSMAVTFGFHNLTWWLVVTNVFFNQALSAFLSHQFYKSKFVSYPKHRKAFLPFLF
UniProt Q9Y6N5: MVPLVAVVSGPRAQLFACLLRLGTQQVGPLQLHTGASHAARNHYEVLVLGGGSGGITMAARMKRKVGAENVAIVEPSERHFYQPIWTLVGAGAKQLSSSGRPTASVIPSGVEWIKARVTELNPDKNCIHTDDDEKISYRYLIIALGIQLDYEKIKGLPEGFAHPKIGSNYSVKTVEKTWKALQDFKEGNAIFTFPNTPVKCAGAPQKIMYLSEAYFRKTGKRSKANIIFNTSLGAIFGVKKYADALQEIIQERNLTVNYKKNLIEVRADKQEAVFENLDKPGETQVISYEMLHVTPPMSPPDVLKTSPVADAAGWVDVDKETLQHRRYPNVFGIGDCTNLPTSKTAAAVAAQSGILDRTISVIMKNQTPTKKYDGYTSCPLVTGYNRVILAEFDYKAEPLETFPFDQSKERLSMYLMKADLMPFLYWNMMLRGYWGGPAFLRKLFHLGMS
UniProt P18583: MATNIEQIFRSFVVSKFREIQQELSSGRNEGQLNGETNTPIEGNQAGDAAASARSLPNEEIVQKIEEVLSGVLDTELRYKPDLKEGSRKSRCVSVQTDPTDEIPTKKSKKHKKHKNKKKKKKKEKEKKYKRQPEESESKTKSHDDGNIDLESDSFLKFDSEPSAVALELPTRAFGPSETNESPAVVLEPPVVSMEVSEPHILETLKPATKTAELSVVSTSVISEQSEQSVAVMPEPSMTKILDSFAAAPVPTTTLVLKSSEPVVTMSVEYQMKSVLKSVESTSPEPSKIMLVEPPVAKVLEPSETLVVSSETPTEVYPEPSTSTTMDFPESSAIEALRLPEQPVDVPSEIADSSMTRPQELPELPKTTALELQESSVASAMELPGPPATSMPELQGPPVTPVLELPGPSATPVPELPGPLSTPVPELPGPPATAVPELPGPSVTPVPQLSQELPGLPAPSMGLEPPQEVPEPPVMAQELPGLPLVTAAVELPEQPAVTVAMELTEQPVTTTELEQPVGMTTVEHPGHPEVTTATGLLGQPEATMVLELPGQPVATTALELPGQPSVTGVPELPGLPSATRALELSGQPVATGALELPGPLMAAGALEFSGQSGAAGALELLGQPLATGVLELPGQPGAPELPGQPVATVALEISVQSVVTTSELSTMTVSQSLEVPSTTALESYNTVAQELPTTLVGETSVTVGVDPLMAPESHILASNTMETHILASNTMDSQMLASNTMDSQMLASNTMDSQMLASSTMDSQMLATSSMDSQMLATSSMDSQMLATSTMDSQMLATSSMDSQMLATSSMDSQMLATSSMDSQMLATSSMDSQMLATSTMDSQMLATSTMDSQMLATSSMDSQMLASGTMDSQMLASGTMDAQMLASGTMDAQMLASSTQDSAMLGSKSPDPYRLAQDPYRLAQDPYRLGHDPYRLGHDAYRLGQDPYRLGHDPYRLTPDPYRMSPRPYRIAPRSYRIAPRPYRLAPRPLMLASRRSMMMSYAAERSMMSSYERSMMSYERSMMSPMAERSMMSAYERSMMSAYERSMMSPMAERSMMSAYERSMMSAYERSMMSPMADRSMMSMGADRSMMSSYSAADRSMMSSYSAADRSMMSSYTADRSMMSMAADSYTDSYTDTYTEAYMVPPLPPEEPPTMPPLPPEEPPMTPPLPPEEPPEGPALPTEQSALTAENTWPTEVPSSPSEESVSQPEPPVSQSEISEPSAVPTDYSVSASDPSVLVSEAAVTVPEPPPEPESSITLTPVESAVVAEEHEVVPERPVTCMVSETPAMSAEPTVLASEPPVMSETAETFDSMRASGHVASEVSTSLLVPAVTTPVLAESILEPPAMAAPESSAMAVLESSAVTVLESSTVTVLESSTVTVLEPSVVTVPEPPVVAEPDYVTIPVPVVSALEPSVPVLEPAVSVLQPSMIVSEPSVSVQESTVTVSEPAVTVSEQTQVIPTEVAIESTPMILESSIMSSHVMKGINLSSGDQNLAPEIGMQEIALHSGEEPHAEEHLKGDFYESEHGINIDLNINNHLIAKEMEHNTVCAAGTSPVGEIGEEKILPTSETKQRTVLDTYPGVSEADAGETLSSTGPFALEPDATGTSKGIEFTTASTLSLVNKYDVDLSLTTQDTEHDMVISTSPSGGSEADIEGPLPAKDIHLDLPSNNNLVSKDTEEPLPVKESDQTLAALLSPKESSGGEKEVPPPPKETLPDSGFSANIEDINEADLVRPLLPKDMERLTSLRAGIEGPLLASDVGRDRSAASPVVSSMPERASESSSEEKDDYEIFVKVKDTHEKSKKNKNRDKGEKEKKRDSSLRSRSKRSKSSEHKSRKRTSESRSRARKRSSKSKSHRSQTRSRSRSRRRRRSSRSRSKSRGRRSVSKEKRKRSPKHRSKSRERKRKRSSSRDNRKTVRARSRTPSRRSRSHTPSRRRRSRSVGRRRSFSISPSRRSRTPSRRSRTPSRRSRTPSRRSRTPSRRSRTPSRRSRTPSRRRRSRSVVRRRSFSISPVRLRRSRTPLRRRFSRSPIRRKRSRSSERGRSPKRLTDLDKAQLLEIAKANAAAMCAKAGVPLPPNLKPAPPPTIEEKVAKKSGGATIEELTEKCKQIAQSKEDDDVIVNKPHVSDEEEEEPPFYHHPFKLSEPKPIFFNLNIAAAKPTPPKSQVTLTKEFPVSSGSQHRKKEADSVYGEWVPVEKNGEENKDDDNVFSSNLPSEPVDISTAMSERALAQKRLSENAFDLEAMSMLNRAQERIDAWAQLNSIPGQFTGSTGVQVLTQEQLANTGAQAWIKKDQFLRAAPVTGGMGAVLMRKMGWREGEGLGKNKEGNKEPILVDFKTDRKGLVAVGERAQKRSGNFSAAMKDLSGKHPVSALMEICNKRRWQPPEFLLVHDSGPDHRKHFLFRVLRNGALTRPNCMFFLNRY

Compound: Cc1cc(ccc1-c1ccccc1)C(=O)N1CCCN(CC1)C(=O)CCl [compound 10]
Experiment: probe-labelled cysteine peptide fold change vs DMSO (competition) (log2 fold change); higher = less target engagement (more negative = stronger competition)
Conditions: THP-1, incubation time: 4 h
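Further: competitive profiling in live THP-1 cells: cysteine peptides tagged with an iodoacetamide desthiobiotin (IA-DTB) probe, intensity after compound treatment relative to DMSO-treated cells.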

Row | Target | probe-labelled cysteine peptide fold change (10 µM) | probe-labelled cysteine peptide fold change (50 µM)
1 | SORD_Q00796_350_CDPSDQNP (UniProt Q00796) | -0.0388 | -0.0976
2 | SNX12_Q9UMY4_141_CLHMFLQEEAIDR (UniProt Q9UMY4) | 0.0398 | 0.0747
3 | SNX27_Q96L92_456_LHACTEEGQLENQVIAFEWDEMQR (UniProt Q96L92) | 0.146 | 0.371
4 | SPECC1_Q5M775_578_ATEASAVEQTAESCEVQEMLK (UniProt Q5M775) | -0.116 | -0.22
5 | SRBD1_Q8N5C6_912_SIVCLEDLQIGTVLTGK (UniProt Q8N5C6) | -0.159 | 0.181
6 | SPEN_Q96T58_877_NRLELMPCVVLTR (UniProt Q96T58) | 0.0437 | -0.0526
7 | SPTLC1_O15269_192_AACFAIQK (UniProt O15269) | 0.0464 | 0.0618
8 | SPTLC2_O15270_99_CHHATER (UniProt O15270) | 0.306 | 0.809
9 | SRP72_O76094_50_DDVTALHCK (UniProt O76094) | 0.224 | -0.266
10 | SRD5A3_Q9H8P0_238_AGVVIHCNHR (UniProt Q9H8P0) | 0.233 | -0.282
11 | SRP72_O76094_349_ISASLQSQSPEHLLPVLIQAAQLCR (UniProt O76094) | 0.103 | -0.17
12 | SQOR_Q9Y6N5_337_YPNVFGIGDCTNLPTSK (UniProt Q9Y6N5) | -0.195 | 0.186
13 | SNX20_Q7Z614_155_HLTGNFAEEMICER (UniProt Q7Z614) | -0.139 | -0.38
14 | SP3_Q02447_683_KFVCPECSK (UniProt Q02447) | 0.188 | 0.33
15 | SON_P18583-2_2133_DLMANATCFR (UniProt P18583) | 5.1e-05 | -0.396

Reprinted at random: 2 records from the list
Row | Target | probe-labelled cysteine peptide fold change (10 µM) | probe-labelled cysteine peptide fold change (50 µM)
15 | SON_P18583-2_2133_DLMANATCFR (UniProt P18583) | 5.1e-05 | -0.396
1 | SORD_Q00796_350_CDPSDQNP (UniProt Q00796) | -0.0388 | -0.0976
